Data from PubChem BioAssay AID504444 (National Center for Advancing Translational Sciences (NCATS), 2011).
About 7,500 (2.1%) of roughly 360,000 compounds were called active. The inconclusive results got no clear call from the source; some entries with a clear call stand among them for comparison. Calls follow the shape of the dose curve; as a rule, active = well fitted inhibition curve with a large enough effect; inconclusive = small, poorly fitted or top-dose-only effect, or effect the other way; inactive = flat fitted curve, though single readings scatter. Potencies of inconclusive entries are doubtful fits and often do not repeat.

Assay: Nrf2 qHTS screen for inhibitors; also: nearly all actives have a fitted effect of over 60% in size
Details: A549 ARE-Fluc reporter, luciferase luminescence, 18-24 h; activity change, negative = inhibition: at 46 µM (top of the series)
Method in brief: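 A549 ARE_Fluc cells, 5000/well, 5% FBS OPTI-MEM; compounds in dose-response, 18-24 h at 37 °C/5% CO2; CellTiter-Fluor viability read (Ex 405/Em 525), then BugLite luciferase luminescence = Nrf2 activity.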
% is scaled to controls: 0 for no effect and ±100 for the full control effect; potency is read from the fitted curve at half-maximal effect.

**Q.** With `COc1cc(CN(C(=O)c2ccccc2)c2ccccn2)cc(OC)c1OC` as the compound, how does the “activity change, negative = inhibition” value read?
**A.** Its value is inactive: -13.8%.

**Q.** With `Cc1ccc(S(=O)(=O)N2CCC(C(=O)N3CCc4ccccc43)CC2)cc1C` as the compound, how does the Potency read?
**A.** The Potency was inconclusive: 32.6 µM [falling, single point].

**Q.** Which Potency does the source give for `CC(=O)N(Cc1ccc(F)cc1)Cc1nc2ccccc2c(=O)[nH]1` here?
**A.** Its Potency is inconclusive: 4.11 µM [falling, partial curve, poor fit].

**Q.** With `O=[N+]([O-])c1ccccc1-c1nc(-c2ccc(Br)o2)no1` as the compound, how does the Potency read?
**A.** Its Potency is inconclusive: 4.61 µM [activator, partial curve].

**Q.** For `O=C(NC(=S)Nc1ccccc1N1CCCCC1)c1ccco1`, which “activity change, negative = inhibition” value is on record?
**A.** Its value is inactive: 5.21%.

**Q.** Which Potency does the source give for `COc1ccc2c(c1)c(=O)c(C(=O)c1ccc(F)cc1)cn2CC(=O)Nc1ccc2c(c1)OCCO2` here?
**A.** The Potency was inconclusive: 20.6 µM [falling, single point].

**Q.** For `CN(C)c1ccc(/C=C2\CCCc3c2nc2ccccc2c3C(=O)O)cc1`, which Potency is on record?
**A.** The Potency was inconclusive: 6.51 µM [activator, partial curve, poor fit].

**Q.** With `Cc1cc2c(cc1C)C(=O)C(Br)=C(N)C2=O` as the compound, how does the Potency read?
**A.** Its Potency is inconclusive: 16.4 µM [falling, partial curve, poor fit].

**Q.** For `COc1ccc(-c2ccc3sc4ccccc4c(=O)c3c2)cn1`, which Potency is on record?
**A.** Its Potency is inconclusive: 2.31 µM [activator, full curve].

**Q.** Which Potency does the source give for `COc1cc(C(=O)N(C)CCOc2ccccc2)ccc1OCC(=O)Nc1cccc(C(F)(F)F)c1` here?
**A.** Its Potency is inconclusive: 18.4 µM [falling, single point].

**Q.** Which Potency does the source give for `CC1(c2nnc(Cc3ccccc3)o2)CC(c2ccc([N+](=O)[O-])cc2)=NO1` (stereo unspecified) here?
**A.** The Potency was inconclusive: 13 µM [falling, partial curve].

**Q.** Which Potency does the source give for `CCN(CCCNC(=O)CNC(=O)c1nn(-c2ccc(OC)c(OC)c2)c(=O)c2ccccc12)c1ccccc1` here?
**A.** The Potency was inconclusive: 25.9 µM [falling, partial curve, poor fit].

**Q.** With `CC(C)c1ccc(-c2noc(SCC(=O)N3CCN(c4ccccc4F)CC3)n2)cc1` as the compound, how does the Potency read?
**A.** Its Potency is inconclusive: 1.84 µM [activator, partial curve, poor fit].

**Q.** For `Cn1c(CNC(=O)CSc2nc(-c3ccccc3F)nc3cc(=O)[nH]n23)nc2ccccc21`, which Potency is on record?
**A.** The Potency was inconclusive: 9.2 µM [activator, partial curve, poor fit].

**Q.** With `Cc1cc(C(=O)COc2ccccc2C(N)=O)c(C)n1CC1CCCO1` (stereo unspecified) as the compound, how does the Potency read?
**A.** The Potency was active: 4.61 µM.

**Q.** Which “activity change, negative = inhibition” value does the source give for `CC(C(=O)Nc1cccnc1)N1C(=O)c2ccccc2C1=O` (stereo unspecified) here?
**A.** Its value is inactive: -0.621%.

**Q.** Which Potency does the source give for `Cn1cc(NC(=O)OCc2ccc(Cl)cc2)c(C(F)(F)F)n1` here?
**A.** The Potency was inconclusive: 2.31 µM [activator, partial curve, poor fit].

**Q.** For `O=C(CN(c1ccc2c(c1)OCCO2)S(=O)(=O)c1ccccc1)NCc1ccc(Cl)cc1`, which “activity change, negative = inhibition” value is on record?
**A.** The value was inactive: -11.5%.

**Q.** Which Potency does the source give for `CC1CCN(c2c(NCC3CCC(C(=O)NCCC4=CCCCC4)CC3)c(=O)c2=O)CC1` (stereo unspecified) here?
**A.** Its Potency is inconclusive: 13 µM [falling, partial curve, poor fit].

**Q.** With `COc1ccc(Cn2ccn(CC(=O)Nc3cc(C)ccc3C)c(=O)c2=O)cc1` as the compound, how does the Potency read?
**A.** The Potency was inconclusive: 29.1 µM [falling, single point].

**Q.** For `C=CCn1c(N)c(C(=O)NCC2CCCO2)c2nc3ccccc3nc21` (stereo unspecified), which “activity change, negative = inhibition” value is on record?
**A.** The value was inactive: -18.6%.

**Q.** With `CC1=C(C#N)C2C(/C1=N/O)C2(C)C` (stereo unspecified) as the compound, how does the Potency read?
**A.** The Potency was inconclusive: 10.3 µM [falling, partial curve].

**Q.** With `O=C1/C(=C/N(C(=O)c2ccco2)c2ccc(Br)cc2)Sc2ccccc21` as the compound, how does the Potency read?
**A.** The Potency was inconclusive: 7.31 µM [activator, partial curve].

**Q.** With `C=CCn1c(SCC(=O)NCC2CCCO2)nc2c([nH]c3ccccc32)c1=O` (stereo unspecified) as the compound, how does the Potency read?
**A.** The Potency was inconclusive: 3.26 µM [falling, full curve, poor fit].

**Q.** For `CN1CCN(S(=O)(=O)c2ccc(NC(=S)NC(=O)c3ccc(Cl)cc3)cc2)CC1`, which “activity change, negative = inhibition” value is on record?
**A.** The value was inactive: 11.3%.

**Q.** For `CCOC(=O)c1sc(=NC(=O)c2cccs2)n(C)c1C`, which Potency is on record?
**A.** The Potency was inconclusive: 5.17 µM [activator, partial curve].

**Q.** Which “activity change, negative = inhibition” value does the source give for `O=C(OCCN1CCN(C2=NS(=O)(=O)c3ccccc32)CC1)c1ccccc1F` here?
**A.** Its value is inactive: 5.82%.

**Q.** With `Cc1ccccc1NC(=O)CSc1nc(=O)n(CCN2CCOCC2)c2c1CCCC2` as the compound, how does the Potency read?
**A.** Its Potency is inconclusive: 13 µM [activator, partial curve, poor fit].

**Q.** Which “activity change, negative = inhibition” value does the source give for `O=C(NCc1ccccc1F)c1ccc2c(c1)OCO2` here?
**A.** Its value is inactive: 0.161%.

**Q.** For `COc1ccccc1C(=O)Nc1ccc(Br)cc1C`, which Potency is on record?
**A.** The Potency was inconclusive: 11.6 µM [activator, partial curve].

**Q.** With `Cc1ccnc(OC(C(=O)O)C(OCCc2ccccc2)(c2ccccc2)c2ccccc2)n1` (stereo unspecified) as the compound, how does the Potency read?
**A.** Its Potency is inconclusive: 29.1 µM [falling, single point].

**Q.** Which Potency does the source give for `COc1cccc(OCc2cc(C(=O)N3CCN(C(=O)c4ccco4)CC3)no2)c1` here?
**A.** Its Potency is inconclusive: 29.1 µM [activator, single point].

**Q.** For `COc1ccc(OCc2ccc(-c3nc(C#N)c(NCc4ccc(F)cc4)o3)o2)cc1`, which Potency is on record?
**A.** The Potency was inconclusive: 29.1 µM [falling, single point].

**Q.** Which “activity change, negative = inhibition” value does the source give for `CCOC(=O)c1ccc(NC2c3ccccc3C(=O)N2c2cccnc2)cc1` (stereo unspecified) here?
**A.** The value was inactive: 14.5%.

**Q.** Which Potency does the source give for `O=C(CN1CCN(c2nc(-c3ccc(F)cc3)cs2)CC1)NCc1ccc2c(c1)OCO2` here?
**A.** The Potency was inconclusive: 23.1 µM [falling, partial curve, poor fit].

**Q.** With `O=S(=O)(Nc1cc(S(=O)(=O)N2CCOCC2)ccc1N1CCOCC1)c1ccc2c(c1)OCCO2` as the compound, how does the Potency read?
**A.** Its Potency is inconclusive: 5.17 µM [activator, partial curve, poor fit].

**Q.** With `CC(C)N1C(=O)CC(Nc2ccc(N3CCOCC3)cc2)C1=O` (stereo unspecified) as the compound, how does the Potency read?
**A.** Its Potency is inconclusive: 16.4 µM [activator, single point].

**Q.** With `COc1ccc(NC(=O)C2CCCN(S(=O)(=O)c3cccc4cccnc34)C2)cc1` (stereo unspecified) as the compound, how does the Potency read?
**A.** The Potency was active: 23.1 µM.

**Q.** For `CCCCCOc1ccc(C(O)C(CN2CCOCC2)c2ccccc2)cc1` (stereo unspecified), which Potency is on record?
**A.** Its Potency is inconclusive: 23.1 µM [activator, single point].

**Q.** With `CC1(C)CC(=O)c2cnc(NCC3CCCO3)nc2C1` (stereo unspecified) as the compound, how does the Potency read?
**A.** Its Potency is inconclusive: 8.2 µM [activator, partial curve].

**Q.** For `CCC(C)n1c(SCC(=O)Nc2ccc3[nH]c(=O)[nH]c3c2)nc2ccccc2c1=O` (stereo unspecified), which Potency is on record?
**A.** The Potency was inconclusive: 8.2 µM [falling, partial curve, poor fit].

**Q.** For `Cc1cc(NC(=O)c2cccc(S(=O)(=O)N3CCOCC3)c2)c2ccccc2n1`, which Potency is on record?
**A.** The Potency was inconclusive: 9.2 µM [falling, partial curve].

**Q.** Which Potency does the source give for `CCOC(=O)C1=C(C)N=C2c3ccccc3C(=O)C2C1c1ccc(C)cc1` (stereo unspecified) here?
**A.** Its Potency is inconclusive: 35.5 µM [falling, single point].

**Q.** Which Potency does the source give for `c1csc(CNc2ncnc3ccc(-c4ccoc4)cc23)c1` here?
**A.** Its Potency is inconclusive: 18.4 µM [falling, partial curve].

**Q.** Which Potency does the source give for `O=C(c1ccc2c(c1)N(Cc1ccccc1F)C(=O)c1ccccc1S2=O)N1CCC(Cc2ccccc2)CC1` (stereo unspecified) here?
**A.** Its Potency is inconclusive: 25.9 µM [falling, partial curve].

**Q.** For `CCOC(=O)/C(=C\c1ccccc1)C(=O)c1cc(C(C)=O)c(Nc2ccccc2)s1`, which Potency is on record?
**A.** The Potency was inconclusive: 29.1 µM [falling, single point].

**Q.** With `O=C(CCC(=O)N1CCCCCC1)Nc1ccc([N+](=O)[O-])cc1` as the compound, how does the “activity change, negative = inhibition” value read?
**A.** The value was inactive: -0.185%.

**Q.** With `COc1cc(/C=C2/SC(=S)N(Cc3ccccc3)C2=O)ccc1O` as the compound, how does the “activity change, negative = inhibition” value read?
**A.** The value was inactive: 6.04%.

**Q.** For `CCCN1C(=O)SC(CC(=O)Nc2ccc(C)cc2)C1=O` (stereo unspecified), which Potency is on record?
**A.** The Potency was inconclusive: 11.6 µM [activator, partial curve, poor fit].

**Q.** Which Potency does the source give for `CC(=O)N1c2c(cc(Br)cc2S(=O)(=O)NCc2ccc3c(c2)OCO3)CC1C` (stereo unspecified) here?
**A.** Its Potency is inconclusive: 29.1 µM [falling, single point].

**Q.** With `O=C(Nc1ccc(F)cc1)c1ccc2nsnc2c1` as the compound, how does the Potency read?
**A.** Its Potency is inconclusive: 13 µM [activator, partial curve, poor fit].

**Q.** With `CCc1c(C)n2nc(C)cc2[nH]c1=O` as the compound, how does the “activity change, negative = inhibition” value read?
**A.** The value was inactive: 0.205%.

**Q.** For `CCOC(=O)COc1ccccc1/C=C\[N+](=O)[O-]`, which Potency is on record?
**A.** The Potency was inconclusive: 29.1 µM [falling, single point].

**Q.** With `Cc1ccc(NS(=O)(=O)c2ccc(OCC(=O)NCc3ccccn3)cc2)cc1` as the compound, how does the “activity change, negative = inhibition” value read?
**A.** Its value is inactive: -2.53%.

**Q.** With `Cc1cccc(N(C)S(=O)(=O)c2nnc(NC(=O)C(C)(C)C)s2)c1` as the compound, how does the Potency read?
**A.** Its Potency is inconclusive: 29.1 µM [activator, single point].

**Q.** Which Potency does the source give for `N#Cc1nc(NCC(F)F)nc(Nc2cc(F)cc(F)c2)n1` here?
**A.** The Potency was inconclusive: 29.1 µM [activator, single point].

**Q.** For `COc1ccc(CNc2ncnc3ccccc23)cc1`, which Potency is on record?
**A.** Its Potency is inconclusive: 20.6 µM [falling, single point].

**Q.** Which “activity change, negative = inhibition” value does the source give for `Cc1ccc(S(=O)(=O)Nc2ccc(C(=O)N3CCCC3)cc2)cc1` here?
**A.** The value was inactive: 0.473%.

**Q.** Which Potency does the source give for `COc1ccc2nc(N=Nc3ccc(O)c4ccccc34)sc2c1` here?
**A.** The Potency was inconclusive: 13 µM [falling, partial curve].

**Q.** With `COc1cc(C(=O)N/N=C(\c2ccccc2)c2ccccn2)cc(OC)c1OC` as the compound, how does the Potency read?
**A.** Its Potency is active: 4.61 µM.

**Q.** With `Nc1nc(N)c(-c2cccc(C(F)(F)F)c2)c(Cc2cccc(C(F)(F)F)c2)n1` as the compound, how does the Potency read?
**A.** The Potency was active: 14.6 µM.

**Q.** For `CCCCOc1ccc(C(=O)Nc2cccc(-n3cnnn3)c2)cc1OC`, which Potency is on record?
**A.** Its Potency is inconclusive: 14.6 µM [falling, partial curve, poor fit].

**Q.** Which Potency does the source give for `O=C(Cc1c[nH]c2ccccc12)Nc1ccccc1N1CCOCC1` here?
**A.** Its Potency is inconclusive: 16.4 µM [falling, single point].

**Q.** Which “activity change, negative = inhibition” value does the source give for `COc1cc(-c2nc3ccc(Cl)cn3c2Nc2ccc3c(c2)OCO3)ccc1O` here?
**A.** Its value is inactive: 8.66%.

**Q.** With `Cc1ccc(C(=O)NC(=S)NNC(=O)c2ccccc2)cc1` as the compound, how does the Potency read?
**A.** Its Potency is inconclusive: 29.1 µM [falling, single point].

**Q.** Which Potency does the source give for `Cc1ccc(NC(=O)c2cc(CN3CCOCC3)on2)cc1Cl` here?
**A.** Its Potency is inconclusive: 2.91 µM [falling, single point].
